PMC9938007

Tests used:
[1] = biological target: T1, full-length AMP deaminase 3 (AMPD3), rat, 90 kDa (rat (endogenous in NRCMs, H9c2 cells and rat heart)) (UniProt O09178); assay: co-IP; anti-AMPD3 immunoprecipitation of NRCM lysate (500 μg), rabbit control IgG as control; IP buffer 150 mM NaCl, 10 mM Tris-HCl pH 7.4, 1% Triton X-100, 0.5% NP-40, 4°C overnight; immunoblotting
T1 sequence: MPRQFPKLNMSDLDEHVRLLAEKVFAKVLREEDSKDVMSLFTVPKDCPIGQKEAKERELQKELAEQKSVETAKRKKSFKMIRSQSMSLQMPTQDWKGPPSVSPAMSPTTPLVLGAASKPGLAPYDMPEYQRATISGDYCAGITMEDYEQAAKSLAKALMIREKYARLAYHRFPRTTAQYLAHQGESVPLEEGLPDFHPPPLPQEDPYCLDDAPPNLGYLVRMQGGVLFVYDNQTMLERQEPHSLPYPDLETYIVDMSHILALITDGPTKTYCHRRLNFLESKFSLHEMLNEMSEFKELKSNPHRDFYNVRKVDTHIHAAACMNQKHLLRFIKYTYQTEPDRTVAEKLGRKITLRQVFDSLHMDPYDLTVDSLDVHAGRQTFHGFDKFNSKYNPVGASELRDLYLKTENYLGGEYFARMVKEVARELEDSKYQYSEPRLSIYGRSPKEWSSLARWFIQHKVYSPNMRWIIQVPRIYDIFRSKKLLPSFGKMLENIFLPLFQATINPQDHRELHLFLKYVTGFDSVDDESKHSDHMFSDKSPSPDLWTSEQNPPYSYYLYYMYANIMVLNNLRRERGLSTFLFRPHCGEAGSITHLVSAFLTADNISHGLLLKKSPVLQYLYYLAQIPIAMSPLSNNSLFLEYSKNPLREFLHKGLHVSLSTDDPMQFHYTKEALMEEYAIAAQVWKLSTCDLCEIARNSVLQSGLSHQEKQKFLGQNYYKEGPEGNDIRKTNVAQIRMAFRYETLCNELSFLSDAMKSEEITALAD

[2] = biological target: T1, full-length AMP deaminase 3 (AMPD3), rat, 90 kDa (rat (endogenous in NRCMs, H9c2 cells and rat heart)); assay: co-IP; anti-AMPD3 immunoprecipitation of lysate of H9c2 cardiomyoblasts with or without E1α knocked down (siRNA); immunoblotting

binding [1]: binds
binding [2]: binds
Substance: E2 subunit of branched-chain α-keto acid dehydrogenase (BCKDH), rat

Results are given in words; binding and its absence hold for the method and conditions named. In cells and extracts the contact can be indirect. Binding can be weak; no strength is given.
